Screening data, single-dose tests

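Whole-cell growth test on Mycobacterium tuberculosis, read after 4 days in a medium based on cholesterol and the lipid DPPC; the read-out is not stated. Concentration: 50 µM. Higher reads as more growth inhibition (inferred: compounds with an IC50 in retests scored well above the rest). Of about 69,000 compounds tested this way, about 370 (0.54%) reached 50% or more in at least one test.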

The filed quantity is “Percent Effect” (%). The controls that fix the scale are not given in the record; negative values are as filed. Compounds were drawn at random from those tested, without regard to their results. Two or more numbers in one place are separate tests of the same structure; such repeats can differ widely.

structure	percent effect
CS(=O)(=O)NCCC(=O)NC1(c2ccc(F)cc2)CCCC1	-12.29
CCn1c(=O)nc(N)c2c(-c3ccc(OC)cc3)csc21	-9.837
Cc1noc(C)c1CN(C)c1nc(C2CCCC2)nc2c1cnn2C	-10.89
CCC(CO)N(Cc1ccco1)C(=O)c1cccc(C)c1O (stereo not drawn)	-10.01
CNc1cc(C2CN(CC(=O)N(C)C)CCO2)nc(C)n1 (stereo not drawn)	0.1498
CCc1nnc(CS(=O)(=O)c2ccc(C)c(C)c2)n1C	-19.07
Cc1cnn(CC2CCCN2C(=O)c2ccc(OCC3CC3)nc2)c1 (stereo not drawn)	4.642
Cc1nonc1NC(=O)CCn1cc(Br)ccc1=O	-9.524
O=C(O)C(F)(F)F.O=C(c1cccc(Cl)c1)N1CCCn2c(CN3CCCCC3)nnc2C1	-26.4
CN1CCC2(CC1)Cc1ccccc1CN(C(=O)CN)C2	1.24
Br.Cc1ccc(C(=O)CN(C2=NCCCCC2)c2ccccc2)cc1	35.63
CN(CCO)C[C@@H]1CN(Cc2ccccc2C#N)C[C@@H]1CO	-2.527
Cc1cc(C)n(CC2CCCN2CCc2ccccn2)n1 (stereo not drawn)	3.87
Cc1cc(=O)n(CCNC(=O)c2ccccc2Cl)cn1	-7.032
Cc1nc(C2CCCN(c3ncc(Br)cn3)C2)no1 (stereo not drawn)	-1.738
Cc1cnn(C2CCCN(C(=O)c3ccc(-n4cccn4)nc3)C2)c1 (stereo not drawn)	-3.704
CNS(=O)(=O)c1ccc(C(=O)N2CCCC2c2ccccc2C)o1 (stereo not drawn)	-1.071
O=C1C=CC=N/C1=C(/O)NCCNS(=O)(=O)N1CCCCCC1	17.2
CN(C)S(=O)(=O)c1ccc(CNC(=O)C2CC(=O)N(C(C)(C)C)C2)cc1 (stereo not drawn)	14.9 & -0.162
CO[C@@H]1CCN(C2CCOCC2)C[C@@H]1Cc1ccccc1.O=C(O)C(F)(F)F	-7.712
Cn1cc(CCNC(=O)N2CCCc3c(F)cccc32)cn1	47.24
Cc1nnc(NC(=O)CCc2c(C)nn3cnnc3c2C)s1	12.93
CCN(CCNCc1cccc(C#N)c1)C1CC1	2.825
CCc1nsc(N2CCN(C(=O)c3ccnc(N(C)C)c3)CC2)n1	-5.642
c1ccc(CCCN2CCCN(c3ncnc4[nH]ccc34)CC2)cc1	2.022
CN(C)CC(=O)N1CCCC1c1ccccn1 (stereo not drawn)	8.083 & -6.688
O=S1(=O)CCC(S(=O)(=O)c2cccc(S(=O)(=O)N3CCCC3)c2)C1 (stereo not drawn)	-14.06
CN(C)c1ncccc1CNCc1ccc(N2CCOCC2)cc1	3.322
Cc1nc(C2CCCN(C(=O)Cn3ccccc3=O)C2)no1 (stereo not drawn)	-1.962
Cc1csc(C(Cc2ccsc2)NC(=O)C2CCN(S(C)(=O)=O)CC2)n1 (stereo not drawn)	1.307
COc1ccc(Cl)cc1CS(=O)(=O)CC(=O)NC(C)CCC(C)C (stereo not drawn)	-5.943
COC1CCN(C(=O)CC(C)(C)C)CC(=O)N(C)c2ccccc21 (stereo not drawn)	-8.309
O=C(O)C(F)(F)F.[H][C@@]12COC[C@]1([H])[C@@H](OCC1CC1)CN2Cc1c(C)noc1C	-13.1
COc1cccc(F)c1CN1CCC(c2nccc(C)n2)C1 (stereo not drawn)	-1.885 & -1.102
COC(=O)c1ccc(C2SCC(=O)Nc3ccsc32)cc1 (stereo not drawn)	11.61 & 1.751
CN(Cc1nc2ccsc2c(=O)[nH]1)CC1CCCCC1	-30.91
Cc1ccc(CCC(=O)N2CCCC(c3cc(C(N)=O)[nH]n3)C2)cc1 (stereo not drawn)	-21.12
COc1c(C)cnc(CN(C)C2CCN(C3CCOCC3)CC2)c1C	4.487
CN(C)C(=O)c1n[nH]c2c1CN(Cc1nccs1)CC2.O=C(O)C(F)(F)F	-13.38 & -4.126
CC(C)N(Cc1cnn(C)c1)CC1CCCN(S(C)(=O)=O)C1 (stereo not drawn)	-21.3
Cc1nc(CN2CCCC(NCCCOc3ccc(F)cc3)C2)no1 (stereo not drawn)	24.33
COc1c(CNC(C)c2sc(C)nc2C)c(C(C)C)nn1C (stereo not drawn)	-16.38 & -15.69
CC(=O)N1CCN(c2ccnc(C)n2)CC(COc2ccccc2)C1 (stereo not drawn)	-1.269
CSc1ccc(OC(C)C(=O)Nc2cc(C)n[nH]2)cc1 (stereo not drawn)	4.955
CCOC1COC2(CCN(c3ncc(C)cn3)CC2)C1 (stereo not drawn)	3.556
CCNC(=O)[C@@H]1C[C@@H](NC(=O)Cc2ccncc2)CN1Cc1ccsc1	-4.361
CS(=O)(=O)NCc1ccc(NC(=O)CC2=CCCCC2)cc1	-11.41 & -15.87
COc1ccc(C(=O)CCc2nc(C3CC3)no2)cc1	47.13
COc1ccccc1CN1CC(O)CN(C(=O)OCC(C)C)CC1=O (stereo not drawn)	-18.23
CCC(C(=O)NCc1csc(-c2ncccn2)n1)n1cccn1 (stereo not drawn)	-17.54
CCOc1ncccc1CNC(=O)N1CCCC1c1cc(C)no1 (stereo not drawn)	-12.98
CC(C)c1nnc(CN2CC(n3cccn3)Cc3ccccc32)o1 (stereo not drawn)	36.83
CC(C)[C@@H]1CN(CCOc2ccc(Cl)cc2)C[C@H]1NS(C)(=O)=O	9.276
CS(=O)(=O)NCCCNC(=O)c1cccc(-n2cccc2)c1	-12.06
Cc1noc(C)c1CN1CCC2(CC1)C(c1ccccc1)CC(=O)N2C.O=C(O)C(F)(F)F (stereo not drawn)	10.18
COc1cccc(C(O)CN2CCN(c3cccc(C)c3)CC2)c1 (stereo not drawn)	4.736
c1ccc(-c2nnn3c2COC(CNCc2ccccn2)C3)cc1 (stereo not drawn)	25.65
CCOc1cc(C)nc(N2CCN(C(=O)c3cc[nH]n3)CC2)n1	11.23
Cc1ccccc1NC(=O)CNC(C)COc1ccccc1 (stereo not drawn)	-3.851
COCCN1CC(C(=O)NCc2ccnc(-n3cccn3)c2)CC1=O (stereo not drawn)	2.281
COCCc1noc(-c2cn(Cc3ccc(OC)cc3)nn2)n1	18.56
CCN(Cc1ccoc1)C(=O)c1ccncc1O	4.908
CCc1nc(CN2CCCN(C(=O)c3cn[nH]c3CC)CC2)cs1	-14.11
Cc1nc(NC(=O)N(C)Cc2ccsc2)nn1C	-1.714 & 11.6
Cc1ccc(NC(=O)CNC(C)Cc2ccsc2)cc1F (stereo not drawn)	15.77
COCCn1/c(=N/C(=O)C(C)C)sc2cc(Cl)ccc21	-18.41
Cn1c(C2CC2)nc2c1CCN(CCOc1ccccc1C#N)C2	-16.82
O=C(NCc1ccc(-n2cncn2)nc1)c1cc(Cl)c2c(c1)OCCO2	-22.97
Cc1cnc(Nc2nccnc2C2CCN(C)CC2)s1	-15.53
O=C(c1noc2c1CCCC2)N1CCCC(c2nccs2)C1 (stereo not drawn)	16.88
Cc1noc(C)c1C1CCCN1C(=O)CN1C(=O)OC(C)(C)C1=O (stereo not drawn)	-6.892
COCc1nc(C(=O)N2CCCC(n3nc(C)cc3C)C2)cs1 (stereo not drawn)	-17.58
[H][C@]12CC[C@]([H])(CN(c3ncnc4ccsc34)C1)N(C)C2=O	1.635
Cn1ccnc1CN1CCC2(CC1)Cc1ccccc1CNC2=O.O=C(O)C(F)(F)F	0.6251
O=C(Cc1cccc(F)c1)NCCNS(=O)(=O)C1CCCC1	-16.96
Cc1nc(C)c(C(C)NCc2cnc(N3CCOCC3)nc2)s1.Cl (stereo not drawn)	14.42

9 of the entries, repeated:

| structure | percent effect |
|---|---|
| `Cc1nc(CN2CCCC(NCCCOc3ccc(F)cc3)C2)no1` (stereo not drawn) | 24.33 |
| `COc1ccc(Cl)cc1CS(=O)(=O)CC(=O)NC(C)CCC(C)C` (stereo not drawn) | -5.943 |
| `CN(C)c1ncccc1CNCc1ccc(N2CCOCC2)cc1` | 3.322 |
| `CCN(Cc1ccoc1)C(=O)c1ccncc1O` | 4.908 |
| `Cc1nnc(NC(=O)CCc2c(C)nn3cnnc3c2C)s1` | 12.93 |
| `Cc1cnc(Nc2nccnc2C2CCN(C)CC2)s1` | -15.53 |
| `COC1CCN(C(=O)CC(C)(C)C)CC(=O)N(C)c2ccccc21` (stereo not drawn) | -8.309 |
| `CCOc1cc(C)nc(N2CCN(C(=O)c3cc[nH]n3)CC2)n1` | 11.23 |
| `CN(CCO)C[C@@H]1CN(Cc2ccccc2C#N)C[C@@H]1CO` | -2.527 |

Data taken from ChEMBL document CHEMBL3988442, “University of Dundee, Small-Polar-MMV Screening Library” (2021).